Results published in patent US20150044244A1, “COMBINED FACILITATOR, ANTIGEN AND DNA VACCINE FOR PREVENTING AND TREATING AUTOIMMUNE DISEASES” (BEIJING ADVANCCINE BIOTECHNOLOGY CO. LTD., priority 2011, published 2015).
These are yes or no findings as the source states them, for the method shown. Some results given as binding are weak or reduced against the parent protein; the word gives no strength. Sequences can lack the tags named with a protein.

Molecular target: T1, MHC-II (I-Ad), as assessed in the tetramer staining-based epitope competition assay (mouse) (UniProt P04228+P01921)
T1 sequence (MHC II alpha, looked up): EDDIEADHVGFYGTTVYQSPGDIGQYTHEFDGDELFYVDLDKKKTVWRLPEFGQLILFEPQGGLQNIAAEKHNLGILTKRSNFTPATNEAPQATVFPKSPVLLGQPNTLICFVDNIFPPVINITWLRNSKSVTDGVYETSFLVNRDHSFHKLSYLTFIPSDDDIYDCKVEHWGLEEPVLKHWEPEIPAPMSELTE
T1 sequence (MHC II beta, looked up): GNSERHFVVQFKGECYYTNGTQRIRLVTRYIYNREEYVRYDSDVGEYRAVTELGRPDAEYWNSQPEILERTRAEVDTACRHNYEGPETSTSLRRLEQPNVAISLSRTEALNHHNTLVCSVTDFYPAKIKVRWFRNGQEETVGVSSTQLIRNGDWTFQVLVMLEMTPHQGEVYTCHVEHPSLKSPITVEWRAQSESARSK
Assay: tetramer staining-based epitope competition assay, flow cytometry on DO11.10 T cells; competitor: PE-conjugated OVA323-339-loaded I-Ad tetramer

binding: binds
B1: OVA323-339, dominant epitope of hen ovalbumin for I-Ad (peptide)
peptide: ISQAVHAAHAEINEAGR
